The star is where a group is joined. Cbz = O=C(OCc1ccccc1)*; OtBu = CC(C)(C)O*

The data set in a line: general procedure: solution-phase peptide synthesis; pivaloyl chloride/pyridine; EDC.HCl/HOOBt; IBCF/NMM; HBTU/DIPEA (amine fragments). The following applies: coupling step, HCl.
Turning to “Ac-(D)Nal-(D)Cph-(D)Pal-Ser-Tyr-(D)Cit-Leu-Arg-Pro-(D)Ala-NH2.HCl”, the step yield result was “at least 70% in weight”.

Turning to “Boc-Cys(Trt)-Ser(tBu)-Asn-Leu-Ser(tBu)-Thr-Cys(Trt) Val Leu Gly OH”, the step yield result is given as “at least 75% in weight”.

As for Cbz-D(OtBu)AFIGL-OH, the step yield entry was “at least 70% in weight”.

Consider “Fmoc-His(Trt)-Trp-Ser-Tyr-(D)Ser(tBu)-Leu-Arg-Pro-NHNHCONH2”, for which the step yield result is listed as “at least 70% in weight”.

On to “Z-Ser-Tyr-(D)Cit-Leu-Arg-Pro-(D)AlaNH2.HCl”, for which the step yield result is “at least 70% in weight”.

The record behind these values is US8546530 (dated 2013).
